# Source: publication PMC5996148
# Amino acid sequences for entries named in this document (tags omitted).
# UniProt P21579, whole entry: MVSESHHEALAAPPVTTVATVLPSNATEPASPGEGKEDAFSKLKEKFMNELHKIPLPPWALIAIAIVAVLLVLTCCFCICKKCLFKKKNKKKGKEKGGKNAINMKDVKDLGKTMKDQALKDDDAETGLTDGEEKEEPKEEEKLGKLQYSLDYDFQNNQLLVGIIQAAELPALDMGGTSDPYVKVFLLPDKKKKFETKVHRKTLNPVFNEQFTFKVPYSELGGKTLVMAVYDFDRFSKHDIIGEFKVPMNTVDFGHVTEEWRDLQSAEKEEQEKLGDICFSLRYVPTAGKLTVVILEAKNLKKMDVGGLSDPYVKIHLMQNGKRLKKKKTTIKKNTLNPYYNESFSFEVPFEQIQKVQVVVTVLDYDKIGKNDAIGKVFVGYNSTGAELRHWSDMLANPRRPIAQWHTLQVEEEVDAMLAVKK
# Some of the results follow. For some of these results: The exact form of the protein is not confirmed.
# How the values were obtained:
# Experiment in all cases: protein microarray (ProtoArray v5.0), streptavidin-Alexa Fluor 647
# Conditions in all cases: 3'-biotin; 20 mM Tris (pH 7.5), 5 mM MgCl2, 100 mM KCl, 0.1% Tween-20, A/T-rich and random oligonucleotide blockers; temperature not stated; high values mean tight binding
# [1] = system: SYNGR4 (human)
# [2] = biological target: SYT1 (UniProt P21579)
# [3] = biological target: T1, SYTL2 (UniProt Q9HCH5)
# T1 sequence: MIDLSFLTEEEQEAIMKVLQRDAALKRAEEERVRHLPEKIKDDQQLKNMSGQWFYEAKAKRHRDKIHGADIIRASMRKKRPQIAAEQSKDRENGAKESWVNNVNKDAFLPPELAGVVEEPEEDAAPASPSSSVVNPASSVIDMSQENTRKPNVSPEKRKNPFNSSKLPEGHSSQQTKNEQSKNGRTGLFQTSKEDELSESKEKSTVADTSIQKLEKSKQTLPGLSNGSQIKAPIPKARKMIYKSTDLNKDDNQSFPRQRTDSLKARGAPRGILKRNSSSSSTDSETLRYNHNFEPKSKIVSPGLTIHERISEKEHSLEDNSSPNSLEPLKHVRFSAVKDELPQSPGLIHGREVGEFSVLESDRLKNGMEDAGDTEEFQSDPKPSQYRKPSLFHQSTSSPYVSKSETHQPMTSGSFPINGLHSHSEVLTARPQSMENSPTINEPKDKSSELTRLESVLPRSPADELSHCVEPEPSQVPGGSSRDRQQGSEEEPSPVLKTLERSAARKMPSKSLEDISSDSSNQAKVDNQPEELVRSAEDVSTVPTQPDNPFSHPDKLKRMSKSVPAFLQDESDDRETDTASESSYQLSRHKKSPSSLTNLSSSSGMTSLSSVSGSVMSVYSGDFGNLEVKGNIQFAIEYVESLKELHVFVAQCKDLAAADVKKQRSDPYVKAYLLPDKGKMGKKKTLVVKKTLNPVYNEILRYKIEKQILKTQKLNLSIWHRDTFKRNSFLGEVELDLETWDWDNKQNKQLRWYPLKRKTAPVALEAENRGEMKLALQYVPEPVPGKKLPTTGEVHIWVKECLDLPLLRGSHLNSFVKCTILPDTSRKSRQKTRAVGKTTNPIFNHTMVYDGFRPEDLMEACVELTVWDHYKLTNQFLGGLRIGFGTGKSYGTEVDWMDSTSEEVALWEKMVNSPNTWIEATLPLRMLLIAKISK
# [4] = system: Scavenger receptor cysteine-rich domain-containing protein LOC284297 (human)
# [5] = system: Secretagogin (human)
# [6] = system: Selenium-binding protein 1 (human)
# [7] = system: Selenoprotein P (human)
# [8] = system: Septin-2 (human)
# [9] = system: Serine/threonine-protein kinase 12 (human)
# [10] = system: Serine/threonine-protein kinase MRCK alpha (human)
sequence,measurement,setting,value
GGTGACAGGGGTATGGGGAGGGG [G4-2 biotinylated (Ct1)],binding signal,[1],-0.377 z-score
same,binding signal,[2],4.95 z-score
same,binding signal,[3],4.04 z-score
same,binding signal,[4],-0.398 z-score
same,binding signal,[5],-0.401 z-score
same,binding signal,[6],-0.375 z-score
same,binding signal,[7],-0.375 z-score
same,binding signal,[8],-0.39 z-score
same,binding signal,[9],6.15 z-score
same,binding signal,[10],-0.397 z-score

# Given tab-delimited: entries from further up
sequence	measurement	setting	value
GGTGACAGGGGTATGGGGAGGGG [G4-2 biotinylated (Ct1)]	binding signal	[7]	-0.375 z-score
same	binding signal	[8]	-0.39 z-score
